Results are given in words; binding and its absence hold for the method and conditions named. In cells and extracts the contact can be indirect. A yes stands for co-enrichment or nearness to the bait. Other partners may have been found. For some assays here: A no says only that the protein was not detected with the bait.
Experiments:
[1] = target: GFP-T6BP (TAX1BP1 / TRAF6-binding protein fused to GFP) (UniProt Q86VP1); test: affinity purification with mass spectrometry; GFP-T6BP or GFP alone from transfected HeLa-CIITA lysate (1% Triton X-100 buffer) on GFP-Trap agarose magnetic beads, 1 h 4°C, on-bead digestion, LC-MS/MS; three biological replicates; fold change ≥10, SAINT ≥0,8
[2] = target: GFP-T6BP (TAX1BP1 / TRAF6-binding protein fused to GFP), Q86VP1; test: as above; details: remark: other sources report otherwise

Sequences of proteins named here, by UniProt entry; tags and fusion partners are left off.
UniProt Q86VP1: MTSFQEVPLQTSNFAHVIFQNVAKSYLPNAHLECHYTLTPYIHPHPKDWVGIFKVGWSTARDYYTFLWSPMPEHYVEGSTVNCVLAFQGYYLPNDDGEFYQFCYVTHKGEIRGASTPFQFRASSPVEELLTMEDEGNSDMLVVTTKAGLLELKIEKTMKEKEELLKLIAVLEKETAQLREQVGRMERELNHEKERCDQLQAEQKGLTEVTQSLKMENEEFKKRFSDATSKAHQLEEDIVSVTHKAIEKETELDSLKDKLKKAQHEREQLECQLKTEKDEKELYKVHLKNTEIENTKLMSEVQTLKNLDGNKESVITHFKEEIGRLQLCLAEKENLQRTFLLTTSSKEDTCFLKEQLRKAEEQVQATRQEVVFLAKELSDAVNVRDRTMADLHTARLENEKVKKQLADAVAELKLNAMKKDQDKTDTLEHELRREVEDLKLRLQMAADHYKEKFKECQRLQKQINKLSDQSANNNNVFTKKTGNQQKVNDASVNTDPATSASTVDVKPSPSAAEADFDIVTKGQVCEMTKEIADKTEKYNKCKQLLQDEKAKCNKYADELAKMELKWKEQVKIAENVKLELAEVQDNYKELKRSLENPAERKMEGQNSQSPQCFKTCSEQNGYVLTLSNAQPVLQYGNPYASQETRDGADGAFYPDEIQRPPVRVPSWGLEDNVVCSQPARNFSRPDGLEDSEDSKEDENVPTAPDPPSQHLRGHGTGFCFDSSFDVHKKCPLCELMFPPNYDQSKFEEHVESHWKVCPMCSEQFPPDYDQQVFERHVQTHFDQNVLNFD

binding [1]	binding [2]	Binder
binds	–	DUB UPS15 (protein, UniProt Q9Y4E8 1-981) MAEGGAADLDTQRSDIATLLKTSLRKGDTWYLVDSRWFKQWKKYVGFDSWDKYQMGDQNVYPGPIDNSGLLKDGDAQSLKEHLIDELDYILLPTEGWNKLVSWYTLMEGQEPIARKVVEQGMFVKHCKVEVYLTELKLCENGNMNNVVTRRFSKADTIDTIEKEIRKIFSIPDEKETRLWNKYMSNTFEPLNKPDSTIQDAGLYQGQVLVIEQKNEDGTWPRGPSTPKSPGASNFSTLPKISPSSLSNNYNNMNNRNVKNSNYCLPSYTAYKNYDYSEPGRNNEQPGLCGLSNLGNTCFMNSAIQCLSNTPPLTEYFLNDKYQEELNFDNPLGMRGEIAKSYAELIKQMWSGKFSYVTPRAFKTQVGRFAPQFSGYQQQDCQELLAFLLDGLHEDLNRIRKKPYIQLKDADGRPDKVVAEEAWENHLKRNDSIIVDIFHGLFKSTLVCPECAKISVTFDPFCYLTLPLPMKKERTLEVYLVRMDPLTKPMQYKVVVPKIGNILDLCTALSALSGIPADKMIVTDIYNHRFHRIFAMDENLSSIMERDDIYVFEININRTEDTEHVIIPVCLREKFRHSSYTHHTGSSLFGQPFLMAVPRNNTEDKLYNLLLLRMCRYVKISTETEETEGSLHCCKDQNINGNGPNGIHEEGSPSEMETDEPDDESSQDQELPSENENSQSEDSVGGDNDSENGLCTEDTCKGQLTGHKKRLFTFQFNNLGNTDINYIKDDTRHIRFDDRQLRLDERSFLALDWDPDLKKRYFDENAAEDFEKHESVEYKPPKKPFVKLKDCIELFTTKEKLGAEDPWYCPNCKEHQQATKKLDLWSLPPVLVVHLKRFSYSRYMRDKLDTLVDFPINDLDMSEFLINPNAGPCRYNLIAVSNHYGGMGGGHYTAFAKNKDDGKWYYFDDSSVSTASEDQIVSKAAYVLFYQRQDTFSGTGFFPLDRETKGASAATGIPLESDEDSNDNDNDIENENCMHTN
–	no binding	myosin-VI, Q9UM54 1-1294 (protein) MEDGKPVWAPHPTDGFQMGNIVDIGPDSLTIEPLNQKGKTFLALINQVFPAEEDSKKDVEDNCSLMYLNEATLLHNIKVRYSKDRIYTYVANILIAVNPYFDIPKIYSSEAIKSYQGKSLGTRPPHVFAIADKAFRDMKVLKMSQSIIVSGESGAGKTENTKFVLRYLTESYGTGQDIDDRIVEANPLLEAFGNAKTVRNNNSSRFGKFVEIHFNEKSSVVGGFVSHYLLEKSRICVQGKEERNYHIFYRLCAGASEDIREKLHLSSPDNFRYLNRGCTRYFANKETDKQILQNRKSPEYLKAGSMKDPLLDDHGDFIRMCTAMKKIGLDDEEKLDLFRVVAGVLHLGNIDFEEAGSTSGGCNLKNKSAQSLEYCAELLGLDQDDLRVSLTTRVMLTTAGGTKGTVIKVPLKVEQANNARDALAKTVYSHLFDHVVNRVNQCFPFETSSYFIGVLDIAGFEYFEHNSFEQFCINYCNEKLQQFFNERILKEEQELYQKEGLGVNEVHYVDNQDCIDLIEAKLVGILDILDEENRLPQPSDQHFTSAVHQKHKDHFRLTIPRKSKLAVHRNIRDDEGFIIRHFAGAVCYETTQFVEKNNDALHMSLESLICESRDKFIRELFESSTNNNKDTKQKAGKLSFISVGNKFKTQLNLLLDKLRSTGASFIRCIKPNLKMTSHHFEGAQILSQLQCSGMVSVLDLMQGGYPSRASFHELYNMYKKYMPDKLARLDPRLFCKALFKALGLNENDYKFGLTKVFFRPGKFAEFDQIMKSDPDHLAELVKRVNHWLTCSRWKKVQWCSLSVIKLKNKIKYRAEACIKMQKTIRMWLCKRRHKPRIDGLVKVGTLKKRLDKFNEVVSVLKDGKPEMNKQIKNLEISIDTLMAKIKSTMMTQEQIQKEYDALVKSSEELLSALQKKKQQEEEAERLRRIQEEMEKERKRREEDEKRRRKEEEERRMKLEMEAKRKQEEEERKKREDDEKRIQAEVEAQLARQKEEESQQQAVLEQERRDRELALRIAQSEAELISDEAQADLALRRSLDSYPVSKNDGTRPKMTPEQMAKEMSEFLSRGPAVLATKAAAGTKKYDLSKWKYAELRDTINTSCDIELLAACREEFHRRLKVYHAWKSKNKKRNTETEQRAPKSVTDYDFAPFLNNSPQQNPAAQIPARQREIEMNRQQRFFRIPFIRPADQYKDPQSKKKGWWYAHFDGPWIARQMELHPDKPPILLVAGKDDMEMCELNLEETGLTRKRGAEILPRQFEEIWERCGGIQYLQNAIESRQARPTYATAMLQSLLK

Source: article PMC9724678
